Not every detail of the peptide structures is certain; ends, links or a residue may be inferred. Where a SMILES comes first, the peptide text is derived from it. [ ]: non-standard residue; d: D form. pGlu = O=C1CC[C@@H](C(=O)O)N1
Tested on: endotoxic mice (lipopolysaccharide endotoxin from E. coli at 60 mg/kg)
Assay: Survival of endotoxic mice following lethal endotoxin dose
Type: in vivo, Swiss-Webster mice
Conditions: endotoxin 60 mg/kg, 3 injections of 100 μg peptide at 5 minutes, 2 and 4 hours post endotoxin, alive at 0 hr: 10 (Tα1-N16-NH2 groups), 8 ([Glp]-Tα1, Tα1-Gly-NH2)
Method: Swiss-Webster mice were treated in five groups: endotoxic mice (mice injected with lipopolysaccharide endotoxin from E. coli at 60 mg/kg) which were otherwise untreated, and endotoxic mice treated with 3 injections of 100 μg Thymosin α1 -N16 Amide (Tα1 -N16 -NH2) treated in two groups, Pyroglutamyl-desacetyl Thymosin α1 ([glp]-Tα1), or Thymosin α1 -Gly Amide (Tα1 -gly-NH2) at 5 minutes, 2 and 4 hours post administration of the endotoxin.

CC[C@H](C)[C@H](NC(=O)[C@H](CCC(=O)O)NC(=O)[C@H](CO)NC(=O)[C@H](CO)NC(=O)[C@@H](NC(=O)[C@H](CC(=O)O)NC(=O)[C@@H](NC(=O)[C@H](C)NC(=O)[C@H](C)NC(=O)[C@H](CC(=O)O)NC(=O)[C@H](CO)NC(=O)[C@@H]1CCC(=O)N1)C(C)C)[C@@H](C)O)C(=O)N[C@H](C(=O)N[C@H](C(=O)N[C@@H](CCCCN)C(=O)N[C@@H](CC(=O)O)C(=O)N[C@@H](CC(C)C)C(=O)N[C@@H](CCCCN)C(=O)N[C@@H](CCC(=O)O)C(=O)N[C@@H](CCCCN)C(=O)N[C@@H](CCCCN)C(=O)N[C@@H](CCC(=O)O)C(=O)N[C@H](C(=O)N[C@H](C(=O)N[C@@H](CCC(=O)O)C(=O)N[C@@H](CCC(=O)O)C(=O)N[C@@H](C)C(=O)N[C@@H](CCC(=O)O)C(=O)N[C@@H](CC(N)=O)C(=O)O)C(C)C)C(C)C)[C@@H](C)O)[C@@H](C)O [[Glp]-Tα1] ([pGlu]SDAAVDTSSEITTKDLKEKKEVVEEAEN-OH)
8: Number of Mice Alive Following Lethal Endotoxin Dose, 24 hr (24 hr, endotoxin alone 4 of 10) | Number of Mice Alive Following Lethal Endotoxin Dose, 48 hr (48 hr, endotoxin alone 3 of 10) | Number of Mice Alive Following Lethal Endotoxin Dose, 72 hr (72 hr, endotoxin alone 3 of 10) | Number of Mice Alive Following Lethal Endotoxin Dose, 4 days (4 days, endotoxin alone 3 of 10) | Number of Mice Alive Following Lethal Endotoxin Dose, 5 days (5 days, endotoxin alone 3 of 10)

From US6262230A, “Analogs of thymosin α1” (SciClone Pharmaceuticals Inc., priority 1994, dated 2001)
